# Some results were stated once for a whole list of compounds, not compound by compound. At least one structure is not confirmed: it was looked up by name or label, or the drawing left a doubt.
# Target: BRD4 (Homo sapiens, UniProt O60885)
# Assay: Modification of BRD4 protein function, downstream c-Myc suppression
# Format: cell-based
# Conditions: 1 µM concentration
row,Structure (SMILES),modification of the BRD4 protein function as evidenced by the downstream c-Myc suppression
1,"CN[C@@H](C)C(=O)N[C@H](C(=O)N1CCC[C@H]1c1nc(-c2ccc(OCCOCCNC(=O)C[C@@H]3N=C(c4ccc(Cl)cc4)c4c(sc(C)c4C)-n4c(C)nnc43)c3ccccc23)cs1)C1CCCCC1 [Example 25, (2S)—N-[(1S)-2-[(2S)-2-(4-[4-[2-(2-[2-[(9S)-7-(4-chlorophenyl)-4,5,13-trimethyl-3-thia-1,8,11,12-tetraazatricyclo[8.3.0.0^[2,6]]trideca-2(6),4,7,10,12-pentaen-9-yl]acetamido]ethoxy)ethoxy]naphthalen-1-yl]-1,3-thiazol-2-yl)pyrrolidin-1-yl]-1-cyclohexyl-2-oxoethyl]-2-(methylamino)propanamide]",demonstrated modification of the BRD4 protein function as evidenced by the downstream c-Myc suppression
2,"CN[C@@H](C)C(=O)N[C@H](C(=O)N1CCC[C@H]1c1nc(-c2ccc(OCCOCCOCCNC(=O)C[C@@H]3N=C(c4ccc(Cl)cc4)c4c(sc(C)c4C)-n4c(C)nnc43)c3ccccc23)cs1)C1CCCCC1 [Example 21, (2S)—N-[(1S)-2-[(2S)-2-[4-(4-[2-[2-(2-[2-[(9S)-7-(4-chlorophenyl)-4,5,13-trimethyl-3-thia-1,8,11,12-tetraazatricyclo[8.3.0.0^[2,6]]trideca-2(6),4,7,10,12-pentaen-9-yl]acetamido]ethoxy)ethoxy]ethoxy]naphthalen-1-yl)-1,3-thiazol-2-yl]pyrrolidin-1-yl]-1-cyclohexyl-2-oxoethyl]-2-(methylamino)propanamide]",demonstrated modification of the BRD4 protein function as evidenced by the downstream c-Myc suppression
3,"CN[C@@H](C)C(=O)N[C@H](C(=O)N1CCC[C@H]1c1nc(-c2ccc(OCCOCCOCCOCCNC(=O)C[C@@H]3N=C(c4ccc(Cl)cc4)c4c(sc(C)c4C)-n4c(C)nnc43)c3ccccc23)cs1)C1CCCCC1 [Example 22, (2S)—N-[(1S)-2-[(2S)-2-[4-[4-(2-[2-[2-(2-[2-[(9S)-7-(4-chlorophenyl)-4,5,13-trimethyl-3-thia-1,8,11,12-tetraazatricyclo[8.3.0.0 ^[2,6]]trideca-2(6),4,7,10,12-pentaen-9-yl]acetamido]ethoxy)ethoxy]ethoxy]ethoxy)naphthalen-1-yl]-1,3-thiazol-2-yl]pyrrolidin-1-yl]-1-cyclohexyl-2-oxoethyl]-2-(methylamino)propanamide]",demonstrated modification of the BRD4 protein function as evidenced by the downstream c-Myc suppression
4,"CN[C@@H](C)C(=O)N[C@H](C(=O)N1CC[C@@H]2CCN(CCc3ccc(OCCOCCOCCNC(=O)C[C@@H]4N=C(c5ccc(Cl)cc5)c5c(sc(C)c5C)-n5c(C)nnc54)cc3)C[C@@H]21)C1CCCCC1 (racemic) [Example 27, tert-Butyl N-[(1S)-1-[[(1S)-2-[6-[2-(4-[2-[2-(2-[2-[(9S)-7-(4-chlorophenyl)-4,5,13-trimethyl-3-thia-1,8,11,12-tetraazatricyclo[8.3.0.0^[2,6]]trideca-2(6),4,7,10,12-pentaen-9-yl]acetamido]ethoxy)ethoxy]ethoxy]phenyl)ethyl]-octahydro-1H-pyrrolo[2,3-c]pyridin-1-yl]-1-cyclohexyl-2-oxoethyl]carbamoyl]ethyl]-N-methylcarbamate]",demonstrated modification of the BRD4 protein function as evidenced by the downstream c-Myc suppression
5,"CN[C@@H](C)C(=O)N[C@H](C(=O)N1CCC[C@H]1c1nc(-c2c(OCCOCCNC(=O)C[C@@H]3N=C(c4ccc(Cl)cc4)c4c(sc(C)c4C)-n4c(C)nnc43)ccc3ccccc23)cs1)C1CCCCC1 [Example 23, (2S)—N-[(1S)-2-[(2S)-2-(4-[2-[2-(2-[2-[(9S)-7-(4-chlorophenyl)-4,5,13-trimethyl-3-thia-1,8,11,12-tetraazatricyclo[8.3.0.0^[2,6]]trideca-2(6),4,7,10,12-pentaen-9-yl]acetamido]ethoxy)ethoxy]naphthalen-1-yl]-1,3-thiazol-2-yl)pyrrolidin-1-yl]-1-cyclohexyl-2-oxoethyl]-2-(methylamino)propanamide]",demonstrated modification of the BRD4 protein function as evidenced by the downstream c-Myc suppression
6,"CN[C@@H](C)C(=O)N[C@H](C(=O)N1CCC[C@H]1c1nc(-c2c(OCCOCCOCCOCCNC(=O)C[C@@H]3N=C(c4ccc(Cl)cc4)c4c(sc(C)c4C)-n4c(C)nnc43)ccc3ccccc23)cs1)C1CCCCC1 [Example 24, (2S)—N-[(1S)-2-[(2S)-2-[4-[2-(2-[2-[2-(2-[2-[(9S)-7-(4-chlorophenyl)-4,5,13-trimethyl-3-thia-1,8,11,12-tetraazatricyclo[8.3.0.0 ^[2,6]]trideca-2(6),4,7,10,12-pentaen-9-yl]acetamido]ethoxy)ethoxy]ethoxy]ethoxy)naphthalen-1-yl]-1,3-thiazol-2-yl]pyrrolidin-1-yl]-1-cyclohexyl-2-oxoethyl]-2-(methylamino)propanamide]",demonstrated modification of the BRD4 protein function as evidenced by the downstream c-Myc suppression
7,"CN[C@@H](C)C(=O)N[C@H](C(=O)N1CCC[C@H]1c1nc(-c2c(OCCOCCOCCNC(=O)C[C@@H]3N=C(c4ccc(Cl)cc4)c4c(sc(C)c4C)-n4c(C)nnc43)ccc3ccccc23)cs1)C1CCCCC1 [Example 20, (2S)—N-[(1S)-2-[(2S)-2-[4-(2-[2-[2-(2-[2-[(9S)-7-(4-chlorophenyl)-4,5,13-trimethyl-3-thia-1,8,11,12-tetraazatricyclo[8.3.0.0^[2,6]]trideca-2(6),4,7,10,12-pentaen-9-yl]acetamido]ethoxy)ethoxy]ethoxy]naphthalen-1-yl)-1,3-thiazol-2-yl]pyrrolidin-1-yl]-1-cyclohexyl-2-oxoethyl]-2-(methylamino)propanamide]",demonstrated modification of the BRD4 protein function as evidenced by the downstream c-Myc suppression
8,"CN[C@@H](C)C(=O)N[C@H](C(=O)N1CC[C@@H]2CCN(CCc3ccc(OCCOCCOCCOCCNC(=O)C[C@@H]4N=C(c5ccc(Cl)cc5)c5c(sc(C)c5C)-n5c(C)nnc54)cc3)C[C@@H]21)C1CCCCC1 [Example 26, (2S)—N-[(1S)-2-[(3aS,7aR)-6-[2-[4-(2-[2-[2-(2-[2-[(9S)-7-(4-chlorophenyl)-4,5,13-trimethyl-3-thia-1,8,11,12-tetraazatricyclo[8.3.0.0^[2,6]]trideca-2(6),4,7,10,12-pentaen-9-yl]acetamido]ethoxy)ethoxy]ethoxy]ethoxy)phenyl]ethyl]-octahydro-1H-pyrrolo[2,3-c]pyridin-1-yl]-1-cyclohexyl-2-oxoethyl]-2-(methylamino)propanamide]",demonstrated modification of the BRD4 protein function as evidenced by the downstream c-Myc suppression
9,CN[C@@H](C)C(=O)N[C@H](C(=O)N1CC[C@@H]2CCN(CCc3ccc(OCCOCCNC(=O)C[C@@H]4N=C(c5ccc(Cl)cc5)c5c(sc(C)c5C)-n5c(C)nnc54)cc3)C[C@@H]21)C1CCCCC1 (racemic) [Example 28],demonstrated modification of the BRD4 protein function as evidenced by the downstream c-Myc suppression

# Reference: patent US20220162163A1, “ALANINE-BASED MODULATORS OF PROTEOLYSIS AND ASSOCIATED METHODS OF USE” (Arvinas Operations, Inc., priority 2015, published 2022)
